{"source": "PubChem BioAssay AID504784 – Drosophila RNAi Screening Center – 2011", "test": "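Search for regulators of lipid droplet storage in oleate-fed fly cells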 (primary screen)", "system": "Drosophila Kc167 embryonic cells", "knock-down reagent": "long dsRNA against Drosophila genes, about 250 ng dsRNA per well", "time to read-out": "4 days", "conditions": "cells fed 400 µM oleic acid bound to BSA", "measured": "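Microscope images give a droplet-to-nucleus area ratio, taken as log and converted to a screen-wide B-score; higher values mean greater lipid storage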", "direction": "droplet/nuclear area B-score: higher = more stored lipid (overstorage)", "note": "The deposit covers about 17,000 reagents; below is a random part of those that have a named target and a result. 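Each column is one replicate's B-score; the combined score over replicates was not deposited, so single values may mislead.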 The numbers tell different reagents against one gene apart. Further read-outs or replicates are left out here."}
The opening 2 entries, to show the layout:
{"target gene": "CG32225", "reagent": 1, "droplet/nuclear area B-score, replicate 1": 0.00719}
{"target gene": "CG2663", "reagent": 1, "droplet/nuclear area B-score, replicate 1": -0.0145}

Results, from the start:
{"target gene": "CG32225", "reagent": 1, "droplet/nuclear area B-score, replicate 1": 0.00719}
{"target gene": "CG2663", "reagent": 1, "droplet/nuclear area B-score, replicate 1": -0.0145}
{"target gene": "CG13982", "reagent": 1, "droplet/nuclear area B-score, replicate 1": -0.0096}
{"target gene": "Jasper (JIL-1 anchoring and stabilizing protein)", "reagent": 1, "droplet/nuclear area B-score, replicate 1": -1.68}
{"target gene": "CAH15 (Carbonic anhydrase 15)", "reagent": 1, "droplet/nuclear area B-score, replicate 1": 0.828}
{"target gene": "CG15535", "reagent": 1, "droplet/nuclear area B-score, replicate 1": -1.31}
{"target gene": "CG32755", "reagent": 1, "droplet/nuclear area B-score, replicate 1": -0.115}
{"target gene": "CG7275", "reagent": 1, "droplet/nuclear area B-score, replicate 1": -0.864}
{"target gene": "CG6931", "reagent": 1, "droplet/nuclear area B-score, replicate 1": 0.191}
{"target gene": "ppk25 (pickpocket 25)", "reagent": 1, "droplet/nuclear area B-score, replicate 1": -0.593}
{"target gene": "CG14606", "reagent": 1, "droplet/nuclear area B-score, replicate 1": 1.46}
{"target gene": "miple1 (midkine and pleiotrophin 1)", "reagent": 1, "droplet/nuclear area B-score, replicate 1": 1.13}
{"target gene": "CG13720", "reagent": 1, "droplet/nuclear area B-score, replicate 1": -0.723}
{"target gene": "CR14499 (retired record)", "reagent": 1, "droplet/nuclear area B-score, replicate 1": 0.46}
{"target gene": "Shaw (Shaker cognate w)", "reagent": 1, "droplet/nuclear area B-score, replicate 1": 0.356}
{"target gene": "Shaw (Shaker cognate w)", "reagent": 2, "droplet/nuclear area B-score, replicate 1": -1.52}
{"target gene": "Shaw (Shaker cognate w)", "reagent": 3, "droplet/nuclear area B-score, replicate 1": 1.92}
